# Primary screen of a compound library

Data taken from ChEMBL document CHEMBL3988442, “University of Dundee, Small-Polar-MMV Screening Library” (2021).

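Whole-cell assay for inhibitors of Mycobacterium tuberculosis growth, labelled Cornell in the record; the read-out is not stated. The concentration is filed as 10 mM, unlikely as a test dose, so the dose is not known. Higher means stronger inhibition (inferred from two other growth screens of the library). Size under these conditions: about 53,000 compounds, about 900 of them at 50% or above in at least one test.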

Results are given as percent effect. How 0% and 100% were set is not recorded. Most values in the screen are low, and negative values occur. The compounds are a random part of those screened.

For CC(C#N)CSc1ccccc1NCC(=O)NCc1ccccc1 (stereo not shown) the result was 7.671%.
For CC(=O)N1CCC2(CC1)CC(N1CCOCC1)c1ccc(C)cc12.O=C(O)C(F)(F)F (stereo not shown) the result was 5.41%.
For O=C(NCC(CO)Cc1ccc(Cl)cc1)c1ccncc1Cl (stereo not shown) the result was 9.822%.
For CC(=O)N1CC(=O)N(c2ccccc2)CC12CCN(CC1CC1)C2.O=C(O)C(F)(F)F (stereo not shown) the result was -7.742%.
For COCCNC(=O)CN(C)Cc1ccc(F)cc1Cl the result was 8.438%.
For CC(C)CN1CCC2(CC1)C(=O)Nc1ccc(C(=O)N(C)C)cc12.O=C(O)C(F)(F)F the result was 16.48%.
For c1ccc(-c2nnc3ccc(N4CCC5(CCOC5)C4)nn23)cc1 (stereo not shown) the result was 19.91%.
For Cc1nc(CN(C)C2CCN(CC(=O)NC3CCOCC3)C2)no1 (stereo not shown) the result was 22.76%.
For Cc1cnc(N2CCC3(CC2)CN(Cc2cccs2)CCO3)nc1.O=C(O)C(F)(F)F.O=C(O)C(F)(F)F the result was 19.42%.
For O=S1(=O)CCC(n2cc(C3=CCN(CCN4CCCCC4)CC3)cn2)C1 (stereo not shown) the result was 18.14%.
For O=C(CCN1CCCO1)N1CC[C@@H](CNC(=O)N2CCCC2)[C@H](O)C1 the result was -18.4%.
For Cc1cnc(-c2nc(C3CCCN(Cc4ccccc4C)C3)no2)cn1.Cl (stereo not shown) the result was -22.89%.
For Cc1ncsc1CN1CCn2nc(CCC(=O)N3CCCC3)cc2C1 the result was 11.56%.
For [H][C@@]12C[C@H](C(=O)N(C)C)[C@@]([H])(CN(C(=O)NCC3CCCCC3)C1)O2 the result was 22.48%.
For O=C(CCc1ccco1)N1CCCN(Cc2cscn2)CC1 the result was -91.61%.
For Cc1cccc(N2CCOCC3(C2)CN(c2cnn(C)c2)C(=O)CO3)n1.O=C(O)C(F)(F)F (stereo not shown) the result was -25.04%.
For Cc1nn2c(NCC(=O)NC3CC3)cc(-c3ccccc3)nc2c1C the result was 21.21%.
For CNS(=O)(=O)c1cccc(C(C)NCc2ccc(F)cc2F)c1 (stereo not shown) the result was -0.8536%.
For O=C(O)C(F)(F)F.O=C(O)C(F)(F)F.[H][C@@]12CN(Cc3cccc(F)c3)C[C@]1([H])CN(Cc1c(C)noc1C)C2 the result was 19.88%.
For Cc1nc(C)c(CNC(=O)NC(c2nnc3n2CCC3)C(C)C)s1 (stereo not shown) the result was 19.39%.
For CC(C)(C)C(O)CN1CCN(C(=O)c2cccc3[nH]ncc23)CC1 (stereo not shown) the result was -6.095%.
For CC(C)c1ncc(Cl)c(C(=O)N2CCCN3CCCC3C2)n1 (stereo not shown) the result was -21.35%.
For CCn1c(C2CCN(C(=O)c3cc(CC(C)C)on3)CC2)nn(C)c1=O the result was -8.215%.
For CC1CN(C(=O)Nc2cccc(CN3CCOC3=O)c2)CCO1 (stereo not shown) the result was 1.749%.
For Cc1cc(-c2nnc(SCC(=O)O)n2C(C)c2ccccc2)nn1C (stereo not shown) the result was 11.68%.
For [H][C@@]12OCCN(C(=O)C3CCCC3)[C@@]1([H])CC[C@H]2OCC1CCOCC1 the result was -22.1%.
For c1ccc2c(c1)CC(n1ccnc1-c1cc3n(n1)CCNC3)CO2 (stereo not shown) the result was 0.6672%.
For COC(=O)c1ccc(N2CCC(N(C)c3ccccc3)CC2)nn1 the result was 11.3%.
For COc1cccc2c1N(Cc1nc(C3CC3)no1)CCC2 the result was 26.77%.
For C1CCN(CCOC2CCNC2)CC1.Cl.Cl (stereo not shown) the result was 28.26%.
For O=C(CN1CCOC(CNc2cccnn2)C1)NCc1ccccn1 (stereo not shown) the result was -21.6%.
For CN(C)C(=O)C1CN(Cc2ccsc2)CCN(S(C)(=O)=O)C1 (stereo not shown) the result was 6.588%.
For O=C(c1cc[nH]n1)N1CCc2c(nc(N3CCCCC3)[nH]c2=O)C1 the result was 11.2%.
For COCC1c2nnn(CC3CC3)c2CCN1C(=O)c1cccn1C (stereo not shown) the result was -36.7%.

Repeated from the top, 3 entries:

- CC(C#N)CSc1ccccc1NCC(=O)NCc1ccccc1 (stereo not shown) | 7.671%
- CC(=O)N1CCC2(CC1)CC(N1CCOCC1)c1ccc(C)cc12.O=C(O)C(F)(F)F (stereo not shown) | 5.41%
- O=C(NCC(CO)Cc1ccc(Cl)cc1)c1ccncc1Cl (stereo not shown) | 9.822%